Results: US20100120810A1, “COMPOUNDS AND METHODS FOR MODULATING RHO GTPASES” (priority 2007, published 2010)
For at least one compound, name, drawing or mass did not settle the structure.

Biological target: T1, Rac1b (Homo sapiens, UniProt P63000)
T1 construct: GST (N); made in house; host or cells: E. coli BL21 Codon+RIL
Assay: Nucleotide binding assay: BODIPY-GTP binding to Rac1b
Format: biochemical
Details: from IC50s
Protocol: Fluorescence of GTP analog BODIPY-GTP increases when it binds to small G proteins. This property was used to assess ability of compounds to inhibit nucleotide binding to Rac1, Rac1b and Cdc42. 2 μM GST-Rac1 and 6 μg His6-Tiam1-DH/PH were diluted in a buffer containing 20 mM Tris, 50 mM NaCl, and 1 mM MgCl2. This mixture was loaded in a 96-well plate. Fluorescence recording were started (λEx: 485 nm; λEm: 538 nm) using a spectrofluorimeter (Fluoroskan; Thermolab Systems). Assay was initiated by the addition of 2 μM BODIPY-GTP with or without various doses of test compound. Fluorescence values were recorded, and data were processed as follows: background fluorescence (unbound BODIPY-GTP) was retrieved from fluorescence values.
This assay allows determining whether compounds can inhibit the binding of a fluorescent nucleotide to recombinant small G proteins of interest. The effect of various alkaloid compounds on binding of BODIPY-GTP to Rac1 activated by DH/PH domain of Guanine nucleotide Exchange Factor Tiam1 (Rac1/Tiam1), Rac1b and Cdc42 is described below.

`Cc1c2cc(O)c(O)cc2cc2c3cc(O)c(O)cc3cc[n+]12.[Cl-]` [Compound 15, 8-Methyl-isoquino[3,2-a]isoquinolinylium-2,3,10,11-tetraol chloride] was tested, and the “fold more active on Rac1b than on Rac1/Tiam1” value was 3 fold.
